Assay results taken from PMC8654949.
These are yes or no findings as the source states them, for the method shown. In cells and extracts the contact can be indirect. These calls come from enrichment with a bait or labelling near it, and not all partners need be listed.

By UniProt entry, the sequences of proteins in these tests, tags left out.
UniProt A6NHR9: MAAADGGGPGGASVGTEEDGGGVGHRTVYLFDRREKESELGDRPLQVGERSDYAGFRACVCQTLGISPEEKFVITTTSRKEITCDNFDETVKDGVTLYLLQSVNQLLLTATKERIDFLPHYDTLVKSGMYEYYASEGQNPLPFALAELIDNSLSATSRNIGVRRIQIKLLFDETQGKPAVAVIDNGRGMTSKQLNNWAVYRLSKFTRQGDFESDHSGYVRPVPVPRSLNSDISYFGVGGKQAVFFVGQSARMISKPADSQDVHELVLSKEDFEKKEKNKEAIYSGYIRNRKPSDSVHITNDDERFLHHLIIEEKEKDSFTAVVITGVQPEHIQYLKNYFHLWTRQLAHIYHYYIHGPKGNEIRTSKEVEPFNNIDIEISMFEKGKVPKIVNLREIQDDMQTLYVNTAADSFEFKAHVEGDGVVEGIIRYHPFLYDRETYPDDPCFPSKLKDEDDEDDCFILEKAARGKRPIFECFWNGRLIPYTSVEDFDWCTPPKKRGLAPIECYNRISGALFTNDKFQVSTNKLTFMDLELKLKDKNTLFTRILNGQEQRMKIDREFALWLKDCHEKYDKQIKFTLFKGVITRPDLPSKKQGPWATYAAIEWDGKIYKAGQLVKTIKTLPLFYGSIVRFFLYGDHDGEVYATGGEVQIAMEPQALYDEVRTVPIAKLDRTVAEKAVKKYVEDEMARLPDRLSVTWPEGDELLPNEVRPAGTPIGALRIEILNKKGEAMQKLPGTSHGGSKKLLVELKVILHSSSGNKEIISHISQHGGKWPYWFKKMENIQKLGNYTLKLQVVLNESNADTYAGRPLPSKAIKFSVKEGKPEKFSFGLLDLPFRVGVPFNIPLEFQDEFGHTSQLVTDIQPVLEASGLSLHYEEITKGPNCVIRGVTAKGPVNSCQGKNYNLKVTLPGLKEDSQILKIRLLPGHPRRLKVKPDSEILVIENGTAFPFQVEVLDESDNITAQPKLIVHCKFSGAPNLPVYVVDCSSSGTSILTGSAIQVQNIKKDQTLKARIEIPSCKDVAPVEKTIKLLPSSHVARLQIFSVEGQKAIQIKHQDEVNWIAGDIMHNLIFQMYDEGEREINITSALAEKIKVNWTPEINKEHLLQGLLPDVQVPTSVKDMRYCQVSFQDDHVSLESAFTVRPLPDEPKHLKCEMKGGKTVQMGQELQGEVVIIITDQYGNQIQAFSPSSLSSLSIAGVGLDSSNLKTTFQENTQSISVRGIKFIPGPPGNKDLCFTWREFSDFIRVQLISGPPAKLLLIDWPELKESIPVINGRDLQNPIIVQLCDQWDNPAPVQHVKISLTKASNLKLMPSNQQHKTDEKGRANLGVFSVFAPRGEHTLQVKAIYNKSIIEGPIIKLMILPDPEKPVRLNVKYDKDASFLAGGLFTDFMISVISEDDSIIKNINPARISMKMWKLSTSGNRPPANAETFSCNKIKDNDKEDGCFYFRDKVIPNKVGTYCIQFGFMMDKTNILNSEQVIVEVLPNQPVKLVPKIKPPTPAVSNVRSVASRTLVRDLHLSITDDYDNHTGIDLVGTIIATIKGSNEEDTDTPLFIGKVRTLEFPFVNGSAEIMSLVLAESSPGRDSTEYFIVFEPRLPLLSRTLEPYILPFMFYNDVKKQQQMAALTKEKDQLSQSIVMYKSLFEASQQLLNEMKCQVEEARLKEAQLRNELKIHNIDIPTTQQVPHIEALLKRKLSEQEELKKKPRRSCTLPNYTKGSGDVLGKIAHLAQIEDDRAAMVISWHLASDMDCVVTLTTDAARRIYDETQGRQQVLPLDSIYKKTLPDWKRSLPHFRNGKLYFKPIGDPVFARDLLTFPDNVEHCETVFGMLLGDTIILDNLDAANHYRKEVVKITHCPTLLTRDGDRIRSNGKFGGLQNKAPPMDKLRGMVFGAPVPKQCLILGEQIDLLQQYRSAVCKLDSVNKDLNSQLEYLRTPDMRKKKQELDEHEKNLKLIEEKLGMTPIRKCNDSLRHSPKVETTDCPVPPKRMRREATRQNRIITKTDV
UniProt O60216: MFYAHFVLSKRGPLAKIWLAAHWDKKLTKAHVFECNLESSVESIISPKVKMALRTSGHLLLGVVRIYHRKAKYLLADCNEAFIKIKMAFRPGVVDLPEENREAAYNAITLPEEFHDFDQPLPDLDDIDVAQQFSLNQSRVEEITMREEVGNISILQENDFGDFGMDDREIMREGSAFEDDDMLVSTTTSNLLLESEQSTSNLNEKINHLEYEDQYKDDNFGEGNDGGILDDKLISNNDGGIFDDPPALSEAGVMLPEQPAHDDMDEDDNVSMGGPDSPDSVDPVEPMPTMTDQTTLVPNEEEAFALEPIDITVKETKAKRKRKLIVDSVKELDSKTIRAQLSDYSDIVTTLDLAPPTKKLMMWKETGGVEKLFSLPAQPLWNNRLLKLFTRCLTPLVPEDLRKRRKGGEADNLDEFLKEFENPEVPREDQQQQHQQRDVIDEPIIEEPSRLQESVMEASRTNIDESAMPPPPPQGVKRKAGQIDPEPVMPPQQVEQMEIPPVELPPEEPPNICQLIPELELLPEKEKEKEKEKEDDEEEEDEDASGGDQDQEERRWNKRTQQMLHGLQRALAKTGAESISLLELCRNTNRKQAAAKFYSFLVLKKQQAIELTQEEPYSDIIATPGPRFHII
UniProt Q9Y265: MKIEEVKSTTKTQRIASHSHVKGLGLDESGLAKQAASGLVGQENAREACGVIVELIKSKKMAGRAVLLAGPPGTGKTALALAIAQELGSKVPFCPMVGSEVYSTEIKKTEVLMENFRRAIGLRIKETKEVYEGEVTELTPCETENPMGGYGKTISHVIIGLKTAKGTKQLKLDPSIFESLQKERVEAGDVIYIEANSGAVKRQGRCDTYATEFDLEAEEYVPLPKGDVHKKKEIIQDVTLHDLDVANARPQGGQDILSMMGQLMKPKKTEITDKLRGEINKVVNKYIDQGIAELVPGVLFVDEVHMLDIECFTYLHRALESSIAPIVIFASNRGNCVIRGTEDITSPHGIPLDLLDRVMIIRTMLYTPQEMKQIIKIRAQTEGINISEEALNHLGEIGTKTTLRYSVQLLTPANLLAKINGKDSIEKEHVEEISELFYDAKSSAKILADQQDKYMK
UniProt Q14676: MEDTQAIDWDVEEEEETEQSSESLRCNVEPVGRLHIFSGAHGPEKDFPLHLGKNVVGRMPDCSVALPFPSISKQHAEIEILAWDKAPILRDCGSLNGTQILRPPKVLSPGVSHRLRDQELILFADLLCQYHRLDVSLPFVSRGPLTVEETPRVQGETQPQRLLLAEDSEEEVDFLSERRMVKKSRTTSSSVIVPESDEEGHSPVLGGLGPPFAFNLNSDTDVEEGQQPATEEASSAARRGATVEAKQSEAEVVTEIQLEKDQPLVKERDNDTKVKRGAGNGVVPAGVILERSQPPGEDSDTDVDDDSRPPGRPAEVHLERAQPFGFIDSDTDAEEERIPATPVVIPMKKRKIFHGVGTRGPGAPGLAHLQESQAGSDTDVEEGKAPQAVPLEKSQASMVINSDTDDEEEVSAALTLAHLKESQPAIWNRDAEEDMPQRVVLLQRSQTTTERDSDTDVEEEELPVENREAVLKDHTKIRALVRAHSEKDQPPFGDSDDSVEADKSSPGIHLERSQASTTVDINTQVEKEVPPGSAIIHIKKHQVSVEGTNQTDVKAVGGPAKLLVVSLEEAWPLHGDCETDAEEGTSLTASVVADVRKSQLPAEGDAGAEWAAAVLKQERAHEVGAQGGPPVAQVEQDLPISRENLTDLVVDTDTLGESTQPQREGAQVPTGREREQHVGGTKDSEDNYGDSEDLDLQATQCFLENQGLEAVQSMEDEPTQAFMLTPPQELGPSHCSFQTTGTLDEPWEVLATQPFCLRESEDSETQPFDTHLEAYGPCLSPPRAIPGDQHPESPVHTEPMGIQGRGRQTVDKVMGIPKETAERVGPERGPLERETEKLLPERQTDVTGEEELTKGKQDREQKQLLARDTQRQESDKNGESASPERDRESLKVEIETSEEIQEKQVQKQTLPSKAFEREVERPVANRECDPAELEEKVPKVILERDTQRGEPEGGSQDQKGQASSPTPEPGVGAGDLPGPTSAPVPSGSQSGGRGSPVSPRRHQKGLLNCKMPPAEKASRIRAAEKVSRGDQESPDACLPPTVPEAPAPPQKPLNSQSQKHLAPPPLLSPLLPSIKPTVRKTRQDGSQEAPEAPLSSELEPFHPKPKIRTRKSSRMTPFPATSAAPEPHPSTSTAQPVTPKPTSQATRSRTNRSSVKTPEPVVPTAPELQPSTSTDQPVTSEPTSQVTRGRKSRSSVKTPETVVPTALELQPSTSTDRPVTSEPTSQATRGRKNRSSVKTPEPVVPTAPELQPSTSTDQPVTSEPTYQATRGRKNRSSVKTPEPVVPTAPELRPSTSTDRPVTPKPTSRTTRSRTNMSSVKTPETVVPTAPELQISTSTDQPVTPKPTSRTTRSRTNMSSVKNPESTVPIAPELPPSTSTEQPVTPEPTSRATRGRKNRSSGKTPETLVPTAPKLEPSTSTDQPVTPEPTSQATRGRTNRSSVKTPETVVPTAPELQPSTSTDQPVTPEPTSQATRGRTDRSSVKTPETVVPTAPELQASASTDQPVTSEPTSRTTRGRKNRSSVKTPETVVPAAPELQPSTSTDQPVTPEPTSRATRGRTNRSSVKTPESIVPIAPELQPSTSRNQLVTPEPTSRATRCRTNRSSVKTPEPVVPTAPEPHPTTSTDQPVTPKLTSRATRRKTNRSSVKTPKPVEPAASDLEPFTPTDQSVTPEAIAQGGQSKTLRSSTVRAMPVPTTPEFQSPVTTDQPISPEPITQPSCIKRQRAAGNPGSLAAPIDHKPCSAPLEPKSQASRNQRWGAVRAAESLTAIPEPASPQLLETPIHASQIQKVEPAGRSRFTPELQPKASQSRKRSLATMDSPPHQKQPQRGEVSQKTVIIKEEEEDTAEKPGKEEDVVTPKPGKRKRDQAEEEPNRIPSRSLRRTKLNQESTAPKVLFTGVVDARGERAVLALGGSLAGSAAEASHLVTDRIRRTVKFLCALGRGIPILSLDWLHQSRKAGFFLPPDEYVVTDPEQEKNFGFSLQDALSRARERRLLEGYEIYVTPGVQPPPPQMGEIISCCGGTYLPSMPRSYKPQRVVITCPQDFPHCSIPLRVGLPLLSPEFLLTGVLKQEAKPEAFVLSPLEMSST

Target: GFP-SMCHD1 (GFP-tagged Structural Maintenance of Chromosomes Hinge Domain Containing 1) (human) (UniProt A6NHR9)
Test: affinity purification with mass spectrometry; SILAC-MS; GFP-Trap agarose beads on nuclear lysates of U2OS clones stably expressing GFP-SMCHD1 against GFP-only U2OS control; NP40 lysis buffer (50 mM Tris-HCl pH 8.0, 150 mM NaCl, 1% NP-40, 1 mM MgCl2), sonicated, Benzonase; washes up to 300 mM NaCl; 8 replicates with label swap; H/L ratio > 1.5 taken as candidate

Substance | binding
RAD21 (cohesin complex component) (from UniProt O60216 1-631) | binds
RuvB Like AAA ATPase 1 (RUVBL1), endogenous (from UniProt Q9Y265 1-456) | binds
mediator of DNA damage checkpoint 1 (MDC1) (from UniProt Q14676 1-2089) | binds
